The record followed here is PMC6050537 (Chemical Science, 2018).

Strings that start with PEPTIDE1 are HELM notation: dots part the residues, brackets hold end groups and non-standard residues.

The nature of the data set: general procedure: Fmoc solid-phase peptide synthesis; pre-loaded Wang resin. Conditions: for isolated yield: whole synthesis.

The substance “HELM PEPTIDE1{C.F.F.L.Y.T}$PEPTIDE1,PEPTIDE1,1:R1-6:R2$$$V2.0 (SMILES CC(C)C[C@@H]1NC(=O)[C@H](Cc2ccccc2)NC(=O)[C@H](Cc2ccccc2)NC(=O)[C@H](CS)NC(=O)[C@H]([C@@H](C)O)NC(=O)[C@H](Cc2ccc(O)cc2)NC1=O)” returned an isolated yield of 23.8%.
The same measure, in the same setting: for “HELM PEPTIDE1{C.F.[Cha].L.Y.T}$PEPTIDE1,PEPTIDE1,1:R1-6:R2$$$V2.0 (SMILES CC(C)C[C@@H]1NC(=O)[C@H](CC2CCCCC2)NC(=O)[C@H](Cc2ccccc2)NC(=O)[C@H](CS)NC(=O)[C@H]([C@@H](C)O)NC(=O)[C@H](Cc2ccc(O)cc2)NC1=O)” the value was 12.8%.
In the case of “HELM PEPTIDE1{C.R.L.F.L.I}$PEPTIDE1,PEPTIDE1,1:R1-6:R2$$$V2.0 (SMILES CC[C@H](C)[C@@H]1NC(=O)[C@H](CC(C)C)NC(=O)[C@H](Cc2ccccc2)NC(=O)[C@H](CC(C)C)NC(=O)[C@H](CCCNC(=N)N)NC(=O)[C@H](CS)NC1=O)”, the isolated yield turned out to be 10.5% yield.
Same read-out and setting: for “HELM PEPTIDE1{C.S.V.V.I.L}$PEPTIDE1,PEPTIDE1,1:R1-6:R2$$$V2.0 (SMILES CC[C@H](C)[C@@H]1NC(=O)[C@H](C(C)C)NC(=O)[C@H](C(C)C)NC(=O)[C@H](CO)NC(=O)[C@H](CS)NC(=O)[C@H](CC(C)C)NC1=O)” the value was 7% yield.
The substance “HELM PEPTIDE1{C.T.I.F.L.L}$PEPTIDE1,PEPTIDE1,1:R1-6:R2$$$V2.0 (SMILES CC[C@H](C)[C@@H]1NC(=O)[C@H]([C@@H](C)O)NC(=O)[C@H](CS)NC(=O)[C@H](CC(C)C)NC(=O)[C@H](CC(C)C)NC(=O)[C@H](Cc2ccccc2)NC1=O)” returned an isolated yield of 11.5%.
The same measure, in the same setting: for “HELM PEPTIDE1{C.T.L.I.L.F}$PEPTIDE1,PEPTIDE1,1:R1-6:R2$$$V2.0 (SMILES CC[C@H](C)[C@@H]1NC(=O)[C@H](CC(C)C)NC(=O)[C@H]([C@@H](C)O)NC(=O)[C@H](CS)NC(=O)[C@H](Cc2ccccc2)NC(=O)[C@H](CC(C)C)NC1=O)” the value was 6%; for “HELM PEPTIDE1{C.T.V.F.I.I}$PEPTIDE1,PEPTIDE1,1:R1-6:R2$$$V2.0 (SMILES CC[C@H](C)[C@@H]1NC(=O)[C@H](Cc2ccccc2)NC(=O)[C@H](C(C)C)NC(=O)[C@H]([C@@H](C)O)NC(=O)[C@H](CS)NC(=O)[C@H]([C@@H](C)CC)NC1=O)”, 25%.
Regarding “PEPTIDE1{C.F.[Cha].L.Y.T}|PEPTIDE2{C.G.R.K.K.R.R.Q.R.R.R.P.P.Q}$PEPTIDE1,PEPTIDE1,1:R1-6:R2|PEPTIDE1,PEPTIDE2,1:R3-1:R3$$$V2.0”, the conjugation yield (conjugation step) came out at 21%. Besides, the “final HPLC purity” value (conjugation step, 220 nm) worked out at 100%.
Substance cyclo-CYL FT-[Cha] (ScramPep2) had an isolated yield of 5.7%.
